Results taken from patent US20080039387 (published 2008).

Test: general procedure: Fmoc solid-phase peptide synthesis; Fmoc-Rink resin (4-(2',4'-dimethoxyphenyl-Fmoc-aminomethyl)-phenoxypolystyrene resin, Bachem D-2080; 0.47 mmol/g); HOBt; HOAt and DIPEA for Fmoc-Glu(2-phenylisopropyloxy)-OH
Details: whole synthesis, hydrochloride

2-[2-(hexadecanoylamino)ethoxy]ethoxyacetyl-Gly-Thr-Gln-Arg-Ser-Nle-c[Glu-Asn-D-Phe-Arg-Trp-Lys]-NH2
final HPLC purity (UV 214 nm, scale of the general procedure theoretically 0.10 mmol): 99% | isolated mass (scale 0.10 mmol): 28.1 mg | isolated yield (scale 0.10 mmol): 14%
